Test results as given in patent US20240123070A1, “EPITOPE PEPTIDE OF RAS G13D MUTANT AND T CELL RECEPTOR RECOGNIZING RAS G13D MUTANT” (SHANGHAI GENBASE BIOTECHNOLOGY CO., LTD., priority 2021, published 2024).

B1: β95Q-M: B8.2.4 TCR point mutant, Vβ-CDR3 95Q to M; CDR3β ASSMTVPPQH (protein)
TCR alpha: AQKITQTQPGMFVQEKEAVTLDCTYDTSDPSYGLFWYKQPSSGEMIFLIYQGSYDQQNATEGRYSLNFQKARKSANLVISASQLGDSAMYFCAMRERTGTASKLTFGTGTRLQVTLDIQNPEPAVYQLKDPRSQDSTLCLFTDFDSQINVPKTMESGTFITDKTVLDMKAMDSKSNGAIAWSNQTSFTCQDIFKETNATYPSSDVPCDATLTEKSFETDMNLNFQNLSVMGLRILLLKVAGFNLLMTLRLWSS
TCR beta: DVKVTQSSRYLVKRTGEKVFLECVQDMDHENMFWYRQDPGLGLRLIYFSYDVKMKEKGDIPEGYSVSREKKERFSLILESASTNQTSMYLCASSMTVPPQHFGDGTRLSILEDLRNVTPPKVSLFEPSKAEIANKQKATLVCLARGFFPDHVELSWWVNGKEVHSGVSTDPQAYKESNYSYCLSSRLRVSATFWHNPRNHFRCQVQFHGLSEEDKWPEGSPKPVTQNISAEAWGRADCGITSASYQQGVLSATILYEILLGKATLYAVLVSTLVVMAMVKRKNS
B2: β95Q-P: B8.2.4 TCR point mutant, Vβ-CDR3 95Q to P (protein)
TCR alpha: AQKITQTQPGMFVQEKEAVTLDCTYDTSDPSYGLFWYKQPSSGEMIFLIYQGSYDQQNATEGRYSLNFQKARKSANLVISASQLGDSAMYFCAMRERTGTASKLTFGTGTRLQVTLDIQNPEPAVYQLKDPRSQDSTLCLFTDFDSQINVPKTMESGTFITDKTVLDMKAMDSKSNGAIAWSNQTSFTCQDIFKETNATYPSSDVPCDATLTEKSFETDMNLNFQNLSVMGLRILLLKVAGFNLLMTLRLWSS
TCR beta: DVKVTQSSRYLVKRTGEKVFLECVQDMDHENMFWYRQDPGLGLRLIYFSYDVKMKEKGDIPEGYSVSREKKERFSLILESASTNQTSMYLCASSPTVPPQHFGDGTRLSILEDLRNVTPPKVSLFEPSKAEIANKQKATLVCLARGFFPDHVELSWWVNGKEVHSGVSTDPQAYKESNYSYCLSSRLRVSATFWHNPRNHFRCQVQFHGLSEEDKWPEGSPKPVTQNISAEAWGRADCGITSASYQQGVLSATILYEILLGKATLYAVLVSTLVVMAMVKRKNS
B3: β95Q-R: B8.2.4 TCR point mutant, Vβ-CDR3 95Q to R (protein)
TCR alpha: AQKITQTQPGMFVQEKEAVTLDCTYDTSDPSYGLFWYKQPSSGEMIFLIYQGSYDQQNATEGRYSLNFQKARKSANLVISASQLGDSAMYFCAMRERTGTASKLTFGTGTRLQVTLDIQNPEPAVYQLKDPRSQDSTLCLFTDFDSQINVPKTMESGTFITDKTVLDMKAMDSKSNGAIAWSNQTSFTCQDIFKETNATYPSSDVPCDATLTEKSFETDMNLNFQNLSVMGLRILLLKVAGFNLLMTLRLWSS
TCR beta: DVKVTQSSRYLVKRTGEKVFLECVQDMDHENMFWYRQDPGLGLRLIYFSYDVKMKEKGDIPEGYSVSREKKERFSLILESASTNQTSMYLCASSRTVPPQHFGDGTRLSILEDLRNVTPPKVSLFEPSKAEIANKQKATLVCLARGFFPDHVELSWWVNGKEVHSGVSTDPQAYKESNYSYCLSSRLRVSATFWHNPRNHFRCQVQFHGLSEEDKWPEGSPKPVTQNISAEAWGRADCGITSASYQQGVLSATILYEILLGKATLYAVLVSTLVVMAMVKRKNS
B4: β95Q-N: B8.2.4 TCR point mutant, Vβ-CDR3 95Q to N; CDR3β ASSNTVPPQH (protein)
TCR alpha: AQKITQTQPGMFVQEKEAVTLDCTYDTSDPSYGLFWYKQPSSGEMIFLIYQGSYDQQNATEGRYSLNFQKARKSANLVISASQLGDSAMYFCAMRERTGTASKLTFGTGTRLQVTLDIQNPEPAVYQLKDPRSQDSTLCLFTDFDSQINVPKTMESGTFITDKTVLDMKAMDSKSNGAIAWSNQTSFTCQDIFKETNATYPSSDVPCDATLTEKSFETDMNLNFQNLSVMGLRILLLKVAGFNLLMTLRLWSS
TCR beta: DVKVTQSSRYLVKRTGEKVFLECVQDMDHENMFWYRQDPGLGLRLIYFSYDVKMKEKGDIPEGYSVSREKKERFSLILESASTNQTSMYLCASSNTVPPQHFGDGTRLSILEDLRNVTPPKVSLFEPSKAEIANKQKATLVCLARGFFPDHVELSWWVNGKEVHSGVSTDPQAYKESNYSYCLSSRLRVSATFWHNPRNHFRCQVQFHGLSEEDKWPEGSPKPVTQNISAEAWGRADCGITSASYQQGVLSATILYEILLGKATLYAVLVSTLVVMAMVKRKNS

test system: murine TCRβ constant region; assay: mTCRβ expression detection on Jurkat-NFAT-Luc cells; format: cell-based; conditions: TCR mutant transduced Jurkat-NFAT-Luc cells

Compared with B1, B2 is lower in mTCRβ %: 82.1% for the first, 76.8% for the second.

First: B3
Second: B4
The mTCRβ % of the first is lower: 73.6% for the first, 75.1% for the second.
